No constants are given. Whether binding was seen depends on the method and setting. Binding seen in cells or lysates may run through a third protein. A result given as binding can be weak or reduced; the word gives no strength. Sequences can lack the tags named with a protein.
Target: T1, nYFP-SconB (Aspergillus fumigatus) (UniProt B0XTS1)
T1 sequence: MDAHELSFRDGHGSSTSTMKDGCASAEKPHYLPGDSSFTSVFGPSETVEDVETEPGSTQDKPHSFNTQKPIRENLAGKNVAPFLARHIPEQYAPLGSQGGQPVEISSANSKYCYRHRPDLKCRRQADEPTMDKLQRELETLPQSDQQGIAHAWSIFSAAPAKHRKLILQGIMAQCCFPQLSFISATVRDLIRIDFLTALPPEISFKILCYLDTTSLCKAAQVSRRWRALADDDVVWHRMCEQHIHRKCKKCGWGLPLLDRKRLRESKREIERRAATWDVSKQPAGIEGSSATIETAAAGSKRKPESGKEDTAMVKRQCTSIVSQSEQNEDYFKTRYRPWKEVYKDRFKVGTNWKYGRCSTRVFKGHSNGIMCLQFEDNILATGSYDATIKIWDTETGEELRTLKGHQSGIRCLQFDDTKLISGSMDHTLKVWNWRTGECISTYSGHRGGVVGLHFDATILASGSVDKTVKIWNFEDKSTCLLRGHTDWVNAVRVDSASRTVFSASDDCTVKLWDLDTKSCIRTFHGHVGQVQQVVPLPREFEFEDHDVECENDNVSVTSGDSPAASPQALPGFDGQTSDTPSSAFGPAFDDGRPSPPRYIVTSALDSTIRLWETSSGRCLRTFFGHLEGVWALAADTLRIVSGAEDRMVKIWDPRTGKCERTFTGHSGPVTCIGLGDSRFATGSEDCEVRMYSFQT
Experiment: split reporter; BiFC with split YFP fusions in hyphae of A. fumigatus (pyrG1 strain Af293.1), without H2O2 (non-stress conditions)

cYFP-SkpA (Aspergillus fumigatus) was tested, and the binding was “binds”.

From article PMC5029927
